The supplement of paper PMC10849652
The list shows a part of the results.

Sequences of proteins named here, by UniProt entry; tags and fusion partners are left off. A change or cut given only in a name is not applied to a line headed by its entry.
UniProt O43765: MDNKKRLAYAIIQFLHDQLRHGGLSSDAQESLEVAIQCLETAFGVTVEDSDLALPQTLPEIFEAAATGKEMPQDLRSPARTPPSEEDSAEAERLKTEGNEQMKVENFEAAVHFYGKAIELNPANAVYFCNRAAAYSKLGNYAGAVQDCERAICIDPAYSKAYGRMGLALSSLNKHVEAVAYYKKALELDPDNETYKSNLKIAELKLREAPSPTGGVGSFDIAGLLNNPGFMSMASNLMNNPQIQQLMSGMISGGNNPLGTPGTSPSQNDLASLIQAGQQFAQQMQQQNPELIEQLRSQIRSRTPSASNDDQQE
UniProt Q8NBJ9: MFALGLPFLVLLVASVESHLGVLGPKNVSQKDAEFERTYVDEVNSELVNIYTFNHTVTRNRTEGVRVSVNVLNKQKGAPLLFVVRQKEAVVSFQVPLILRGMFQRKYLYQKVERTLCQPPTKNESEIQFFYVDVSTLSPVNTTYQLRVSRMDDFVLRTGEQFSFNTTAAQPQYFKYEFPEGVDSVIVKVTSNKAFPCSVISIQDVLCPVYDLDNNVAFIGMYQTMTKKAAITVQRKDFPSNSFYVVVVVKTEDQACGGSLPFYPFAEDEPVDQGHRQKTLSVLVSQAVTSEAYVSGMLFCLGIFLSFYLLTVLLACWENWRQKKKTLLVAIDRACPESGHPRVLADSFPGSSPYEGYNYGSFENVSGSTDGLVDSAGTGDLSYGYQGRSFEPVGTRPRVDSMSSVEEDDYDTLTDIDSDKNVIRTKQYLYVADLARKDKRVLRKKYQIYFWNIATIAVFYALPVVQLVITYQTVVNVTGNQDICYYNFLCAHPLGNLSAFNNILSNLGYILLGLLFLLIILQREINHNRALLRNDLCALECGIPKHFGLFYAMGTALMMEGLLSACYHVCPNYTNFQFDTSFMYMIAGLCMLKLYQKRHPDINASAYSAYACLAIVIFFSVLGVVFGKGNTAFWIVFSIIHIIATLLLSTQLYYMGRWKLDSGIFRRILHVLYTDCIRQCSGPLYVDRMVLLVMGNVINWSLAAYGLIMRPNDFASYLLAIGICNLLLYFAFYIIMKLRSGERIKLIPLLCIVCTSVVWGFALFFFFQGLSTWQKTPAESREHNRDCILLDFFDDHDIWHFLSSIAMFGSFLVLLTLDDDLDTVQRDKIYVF
UniProt Q9UQ13: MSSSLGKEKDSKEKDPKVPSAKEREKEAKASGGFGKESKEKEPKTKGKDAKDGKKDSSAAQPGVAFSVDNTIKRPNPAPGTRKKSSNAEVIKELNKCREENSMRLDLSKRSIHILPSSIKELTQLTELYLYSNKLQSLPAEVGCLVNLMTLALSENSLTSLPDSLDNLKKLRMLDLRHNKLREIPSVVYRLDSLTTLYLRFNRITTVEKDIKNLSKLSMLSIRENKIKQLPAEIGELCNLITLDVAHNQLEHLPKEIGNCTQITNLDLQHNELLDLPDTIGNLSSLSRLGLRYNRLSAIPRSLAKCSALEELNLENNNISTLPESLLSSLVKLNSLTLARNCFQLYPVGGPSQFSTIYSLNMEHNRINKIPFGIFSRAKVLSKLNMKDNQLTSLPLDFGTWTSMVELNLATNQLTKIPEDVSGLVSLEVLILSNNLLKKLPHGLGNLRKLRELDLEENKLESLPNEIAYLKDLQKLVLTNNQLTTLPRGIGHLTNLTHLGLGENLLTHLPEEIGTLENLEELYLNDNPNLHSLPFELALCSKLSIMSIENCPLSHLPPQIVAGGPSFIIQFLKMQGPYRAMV
UniProt Q9HD40: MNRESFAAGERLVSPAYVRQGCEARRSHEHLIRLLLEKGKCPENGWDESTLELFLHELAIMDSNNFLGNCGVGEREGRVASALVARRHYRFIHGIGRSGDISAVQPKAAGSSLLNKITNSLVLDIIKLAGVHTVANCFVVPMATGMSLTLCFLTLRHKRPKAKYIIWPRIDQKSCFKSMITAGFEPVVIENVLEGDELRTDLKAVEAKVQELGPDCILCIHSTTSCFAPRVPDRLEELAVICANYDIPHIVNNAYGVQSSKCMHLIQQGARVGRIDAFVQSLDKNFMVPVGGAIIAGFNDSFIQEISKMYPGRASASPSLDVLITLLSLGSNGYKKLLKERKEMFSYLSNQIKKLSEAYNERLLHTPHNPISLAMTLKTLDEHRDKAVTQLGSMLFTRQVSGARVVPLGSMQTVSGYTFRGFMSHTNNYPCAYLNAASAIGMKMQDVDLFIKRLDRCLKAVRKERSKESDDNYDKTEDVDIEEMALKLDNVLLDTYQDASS
UniProt P36955: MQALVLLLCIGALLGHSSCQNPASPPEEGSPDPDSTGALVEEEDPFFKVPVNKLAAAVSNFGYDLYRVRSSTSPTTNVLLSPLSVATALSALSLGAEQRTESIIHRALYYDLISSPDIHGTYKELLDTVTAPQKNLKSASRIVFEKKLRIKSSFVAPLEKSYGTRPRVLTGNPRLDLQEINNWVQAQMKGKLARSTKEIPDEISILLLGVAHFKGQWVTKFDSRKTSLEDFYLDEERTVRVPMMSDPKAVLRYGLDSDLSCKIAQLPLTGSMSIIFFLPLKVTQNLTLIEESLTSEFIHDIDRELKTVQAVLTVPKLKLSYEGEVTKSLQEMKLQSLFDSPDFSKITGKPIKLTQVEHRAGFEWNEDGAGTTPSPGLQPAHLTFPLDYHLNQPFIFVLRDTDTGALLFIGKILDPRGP
UniProt Q86TU7: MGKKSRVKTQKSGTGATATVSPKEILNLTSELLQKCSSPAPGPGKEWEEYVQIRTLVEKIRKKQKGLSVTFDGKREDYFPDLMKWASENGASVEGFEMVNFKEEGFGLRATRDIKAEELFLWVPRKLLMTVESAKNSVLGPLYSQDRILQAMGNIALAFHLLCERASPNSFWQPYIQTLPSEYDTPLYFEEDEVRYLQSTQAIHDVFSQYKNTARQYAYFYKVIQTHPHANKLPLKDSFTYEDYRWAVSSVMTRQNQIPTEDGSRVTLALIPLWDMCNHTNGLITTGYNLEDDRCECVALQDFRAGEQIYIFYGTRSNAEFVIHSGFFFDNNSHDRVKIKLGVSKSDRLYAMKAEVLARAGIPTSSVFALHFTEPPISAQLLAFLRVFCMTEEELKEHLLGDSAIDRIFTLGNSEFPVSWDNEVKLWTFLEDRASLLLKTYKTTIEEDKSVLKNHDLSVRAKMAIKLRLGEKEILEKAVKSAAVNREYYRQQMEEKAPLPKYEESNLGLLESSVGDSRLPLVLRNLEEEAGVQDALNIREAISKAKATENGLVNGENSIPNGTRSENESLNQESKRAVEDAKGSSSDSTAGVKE
UniProt Q9UHD8: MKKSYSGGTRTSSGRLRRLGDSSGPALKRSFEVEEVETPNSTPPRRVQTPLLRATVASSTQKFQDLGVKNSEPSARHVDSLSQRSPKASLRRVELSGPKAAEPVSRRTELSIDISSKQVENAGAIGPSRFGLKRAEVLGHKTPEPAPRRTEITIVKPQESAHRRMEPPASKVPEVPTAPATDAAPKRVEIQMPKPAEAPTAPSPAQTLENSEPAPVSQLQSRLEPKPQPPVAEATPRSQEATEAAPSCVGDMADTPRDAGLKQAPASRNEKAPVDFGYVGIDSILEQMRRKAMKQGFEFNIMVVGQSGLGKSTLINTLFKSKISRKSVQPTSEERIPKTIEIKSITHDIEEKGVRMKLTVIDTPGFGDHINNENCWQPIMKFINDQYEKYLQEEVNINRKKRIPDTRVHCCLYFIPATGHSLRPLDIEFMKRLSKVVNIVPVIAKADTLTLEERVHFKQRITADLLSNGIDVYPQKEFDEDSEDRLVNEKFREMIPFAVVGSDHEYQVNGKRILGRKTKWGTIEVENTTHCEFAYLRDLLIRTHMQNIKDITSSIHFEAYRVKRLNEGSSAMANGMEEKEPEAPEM
UniProt Q8IZQ5, whole entry, looked up: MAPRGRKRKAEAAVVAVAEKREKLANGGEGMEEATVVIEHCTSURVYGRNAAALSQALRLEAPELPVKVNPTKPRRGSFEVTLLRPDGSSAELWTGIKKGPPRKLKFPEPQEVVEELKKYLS
UniProt Q53H47: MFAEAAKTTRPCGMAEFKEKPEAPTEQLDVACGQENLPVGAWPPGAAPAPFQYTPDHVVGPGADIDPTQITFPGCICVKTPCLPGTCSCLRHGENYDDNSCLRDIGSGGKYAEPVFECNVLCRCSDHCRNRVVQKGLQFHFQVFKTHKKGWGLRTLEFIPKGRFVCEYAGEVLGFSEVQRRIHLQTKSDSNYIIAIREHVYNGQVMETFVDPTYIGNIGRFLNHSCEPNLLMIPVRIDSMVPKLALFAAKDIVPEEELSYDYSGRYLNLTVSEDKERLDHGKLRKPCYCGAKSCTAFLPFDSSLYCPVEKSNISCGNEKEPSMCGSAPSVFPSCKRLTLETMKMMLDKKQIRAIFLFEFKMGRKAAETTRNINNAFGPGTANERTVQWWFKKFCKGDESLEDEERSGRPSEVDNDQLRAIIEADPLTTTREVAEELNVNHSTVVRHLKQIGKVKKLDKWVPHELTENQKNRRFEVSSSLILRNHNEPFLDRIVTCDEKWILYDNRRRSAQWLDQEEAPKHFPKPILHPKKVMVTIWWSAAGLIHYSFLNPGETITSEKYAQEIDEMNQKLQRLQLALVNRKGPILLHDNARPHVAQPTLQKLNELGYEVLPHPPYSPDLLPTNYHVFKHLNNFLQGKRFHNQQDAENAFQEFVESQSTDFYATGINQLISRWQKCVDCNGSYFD
UniProt Q99611, whole entry, looked up: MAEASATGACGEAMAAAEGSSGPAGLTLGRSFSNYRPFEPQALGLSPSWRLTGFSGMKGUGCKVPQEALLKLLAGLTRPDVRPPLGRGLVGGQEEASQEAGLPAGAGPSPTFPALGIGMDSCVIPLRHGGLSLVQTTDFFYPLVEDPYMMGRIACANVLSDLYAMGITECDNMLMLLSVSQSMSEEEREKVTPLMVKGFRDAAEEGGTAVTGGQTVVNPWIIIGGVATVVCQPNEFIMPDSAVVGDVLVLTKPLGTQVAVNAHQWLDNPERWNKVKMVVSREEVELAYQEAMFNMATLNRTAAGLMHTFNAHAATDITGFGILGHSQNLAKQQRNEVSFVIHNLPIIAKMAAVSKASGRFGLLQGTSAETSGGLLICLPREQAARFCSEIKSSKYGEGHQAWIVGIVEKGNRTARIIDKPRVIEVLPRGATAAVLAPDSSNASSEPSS
UniProt P05543: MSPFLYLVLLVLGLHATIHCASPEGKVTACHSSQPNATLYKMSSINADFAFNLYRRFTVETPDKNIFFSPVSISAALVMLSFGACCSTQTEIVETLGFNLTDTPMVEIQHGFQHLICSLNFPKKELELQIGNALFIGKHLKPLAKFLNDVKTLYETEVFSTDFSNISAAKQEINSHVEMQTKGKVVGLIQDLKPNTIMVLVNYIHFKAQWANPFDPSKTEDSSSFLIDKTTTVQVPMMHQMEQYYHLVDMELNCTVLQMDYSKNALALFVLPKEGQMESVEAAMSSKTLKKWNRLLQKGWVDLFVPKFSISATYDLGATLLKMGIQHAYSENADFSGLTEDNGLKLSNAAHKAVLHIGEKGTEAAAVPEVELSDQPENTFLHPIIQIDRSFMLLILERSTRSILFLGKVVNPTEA
UniProt Q13530: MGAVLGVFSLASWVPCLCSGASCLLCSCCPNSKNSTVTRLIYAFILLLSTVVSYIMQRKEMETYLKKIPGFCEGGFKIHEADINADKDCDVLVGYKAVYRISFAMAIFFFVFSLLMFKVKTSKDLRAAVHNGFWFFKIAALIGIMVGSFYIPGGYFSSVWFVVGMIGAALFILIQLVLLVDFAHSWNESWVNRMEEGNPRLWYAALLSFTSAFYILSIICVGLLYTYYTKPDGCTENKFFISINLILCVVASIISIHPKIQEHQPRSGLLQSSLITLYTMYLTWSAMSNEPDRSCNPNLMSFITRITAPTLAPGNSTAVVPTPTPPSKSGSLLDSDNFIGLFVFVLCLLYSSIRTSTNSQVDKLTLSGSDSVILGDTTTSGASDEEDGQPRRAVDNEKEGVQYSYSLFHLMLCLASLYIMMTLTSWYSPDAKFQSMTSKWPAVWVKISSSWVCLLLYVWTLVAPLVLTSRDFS
UniProt Q99961: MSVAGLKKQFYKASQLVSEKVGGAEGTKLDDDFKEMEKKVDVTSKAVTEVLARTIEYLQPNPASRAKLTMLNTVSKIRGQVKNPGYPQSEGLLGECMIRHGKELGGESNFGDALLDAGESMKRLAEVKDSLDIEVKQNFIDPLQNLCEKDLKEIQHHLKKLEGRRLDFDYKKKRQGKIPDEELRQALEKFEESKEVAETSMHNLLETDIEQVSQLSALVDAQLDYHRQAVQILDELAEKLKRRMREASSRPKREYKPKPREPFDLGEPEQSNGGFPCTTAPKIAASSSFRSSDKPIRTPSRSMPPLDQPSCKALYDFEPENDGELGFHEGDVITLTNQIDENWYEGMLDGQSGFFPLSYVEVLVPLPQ
UniProt Q99720, whole entry, looked up: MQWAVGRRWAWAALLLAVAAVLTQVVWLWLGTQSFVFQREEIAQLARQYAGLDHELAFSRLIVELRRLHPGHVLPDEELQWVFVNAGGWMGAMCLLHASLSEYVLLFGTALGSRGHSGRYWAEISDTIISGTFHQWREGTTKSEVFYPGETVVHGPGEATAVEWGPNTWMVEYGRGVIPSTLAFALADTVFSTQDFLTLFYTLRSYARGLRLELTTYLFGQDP

The targets below were run with C1COCCN1CCN2C3=CC=CC=C3N=C2NC(=O)C4=CC(=CC=C4)[N+](=O)[O-] [IRAK-1-4 Inhibitor I] (assay: log2 fold change, soluble protein after heating vs DMSO (PISA); higher = thermal stabilisation; K562 cells, 10 uM, 30 min; active = over 0.2 and 3.5 SD of the protein, either way, in both replicates (recomputed)).
In short: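 Values are thermal stability changes relative to control samples and are taken from duplicates. They are stated as log2 fold changes. Before quantification by TMTpro 16plex LC-MS/MS with equalised channel sums, K562 cells at 2×10^6 cells/mL were treated with 10 μM compound for 30 min, heated in aliquots for 3 min across 48°C-58°C, pooled, extracted in PBS with 0.5% NP-40 at 4°C, and centrifuged at 21,000xg for 90 min to give the soluble supernatant.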

log2 fold change, inactive:
SFXN2 (UniProt Q96NB2) 0.043
SESN2 (UniProt P58004) -0.143
SGPL1 (UniProt O95470) -0.05
SGTA (UniProt O43765) 0.013
SIDT2 isoform 2 (UniProt Q8NBJ9) -0.017
SHOC2 (UniProt Q9UQ13) 0.016
SEPSECS (UniProt Q9HD40) 0.06
SERINC1 (UniProt Q9NRX5) 0
SERPINF1 (UniProt P36955) 0.003
SIN3A (UniProt Q96ST3) -0.041
SEH1L isoform 1 (UniProt Q96EE3) 0.028
SETD3 (UniProt Q86TU7) -0.007
SEPTIN9 (UniProt Q9UHD8) 0.024
SEPTIN4 isoform 4 (UniProt O43236) -0.114
SHCBP1 (UniProt Q8NEM2) -0.11
SENP6 (UniProt Q9GZR1) 0.005
SELENOH (UniProt Q8IZQ5) -0.018
SETMAR (UniProt Q53H47) 0.093
SKP1 (UniProt P63208) 0.069
SH3GLB2 (UniProt Q9NR46) 0.028
SEPHS2 (UniProt Q99611) 0.016
SERPINA7 (UniProt P05543) 0.095
SERPINB6, A0A087X1N8 0.05
SHC1 isoform 6 (UniProt P29353) 0.015
SERINC3 (UniProt Q13530) -0.006
SEL1L3 (UniProt Q68CR1) 0.017
SFXN5 (UniProt Q8TD22) 0.225
SH3GL1 (UniProt Q99961) -0.09
SEPTIN5 (UniProt Q99719) 0.014
SIRT2 (UniProt Q8IXJ6) 0.047
SIGMAR1 (UniProt Q99720) 0.019
SELENOF (UniProt O60613) 0.012

Two records drawn at random from those above, as already listed:
log2 fold change, inactive:
SFXN5 (UniProt Q8TD22) 0.225
SEPSECS (UniProt Q9HD40) 0.06
